Reference: PubChem BioAssay AID1224831 (NIAID, 2016)
Here is one part, drawn at random, of about 3,500 reagents. In the full data, 731 (21%) got an active call. 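Active means either lowered or raised reporter signal; the gene-median score did not drive the per-siRNA calls.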 A number with no mark means an inactive call. Reagents against one gene are numbered here. No sequences are given here.

Purpose: 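Confirming genome-wide hits on LPS-triggered TNF-alpha induction with independent siRNA sequences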 (follow-up of hits)
Cell system: human THP-1 B5 monocytic leukaemia cells carrying a TNF promoter luciferase reporter, made macrophage-like with PMA
Reagents: single siRNA against human genes, 50 nM
Duration: about 68 h of knock-down, then 4 h LPS
Conditions: LPS (Salmonella minnesota, TLR-grade) at 10 ng/ml for 4 h; PMA 5 ng/ml present during knock-down
Measured: 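Firefly to renilla luciferase ratio of a TNF promoter reporter after 4 h LPS, scaled to plate median, turned into robust z-score, averaged over replicates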
Scale: TNF reporter z-score: higher = stronger LPS-induced TNF reporter signal; z-score, median over gene's siRNAs: higher = stronger TNF reporter signal across the gene's siRNAs
Call rule: 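Two-sided call: reduced or raised TNF reporter signal counts as active once mean z reaches about -1 or below, or about 1.5 or above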
Calls: active = changed TNF reporter (either direction); inactive = little change

{"gene":"GSTK1","reagent no.":1,"TNF reporter z-score, replicate mean":"2.19 (active)","z-score, median over gene's siRNAs":0.485}
{"gene":"GSTK1","reagent no.":2,"TNF reporter z-score, replicate mean":-0.38,"z-score, median over gene's siRNAs":0.485}
{"gene":"GSTK1","reagent no.":3,"TNF reporter z-score, replicate mean":0.61,"z-score, median over gene's siRNAs":0.485}
{"gene":"GSTK1","reagent no.":4,"TNF reporter z-score, replicate mean":"4.02 (active)","z-score, median over gene's siRNAs":0.485}
{"gene":"GSTK1","reagent no.":5,"TNF reporter z-score, replicate mean":0.36,"z-score, median over gene's siRNAs":0.485}
{"gene":"GSTK1","reagent no.":6,"TNF reporter z-score, replicate mean":-0.02,"z-score, median over gene's siRNAs":0.485}
{"gene":"CD209","reagent no.":1,"TNF reporter z-score, replicate mean":-0.8,"z-score, median over gene's siRNAs":0.35}
{"gene":"CD209","reagent no.":2,"TNF reporter z-score, replicate mean":0.93,"z-score, median over gene's siRNAs":0.35}
{"gene":"CD209","reagent no.":3,"TNF reporter z-score, replicate mean":-0.5,"z-score, median over gene's siRNAs":0.35}
{"gene":"CD209","reagent no.":4,"TNF reporter z-score, replicate mean":0.25,"z-score, median over gene's siRNAs":0.35}
{"gene":"CD209","reagent no.":5,"TNF reporter z-score, replicate mean":0.45,"z-score, median over gene's siRNAs":0.35}
{"gene":"CD209","reagent no.":6,"TNF reporter z-score, replicate mean":"1.74 (active)","z-score, median over gene's siRNAs":0.35}
{"gene":"PDCD6","reagent no.":1,"TNF reporter z-score, replicate mean":-0.41,"z-score, median over gene's siRNAs":0.105}
{"gene":"PDCD6","reagent no.":2,"TNF reporter z-score, replicate mean":0.12,"z-score, median over gene's siRNAs":0.105}
{"gene":"PDCD6","reagent no.":3,"TNF reporter z-score, replicate mean":-0.02,"z-score, median over gene's siRNAs":0.105}
{"gene":"PDCD6","reagent no.":4,"TNF reporter z-score, replicate mean":0.09,"z-score, median over gene's siRNAs":0.105}
{"gene":"PDCD6","reagent no.":5,"TNF reporter z-score, replicate mean":0.57,"z-score, median over gene's siRNAs":0.105}
{"gene":"PDCD6","reagent no.":6,"TNF reporter z-score, replicate mean":"1.66 (active)","z-score, median over gene's siRNAs":0.105}

Records listed so far whose target name starts with G or g (6):
{"gene":"GSTK1","reagent no.":1,"TNF reporter z-score, replicate mean":"2.19 (active)","z-score, median over gene's siRNAs":0.485}
{"gene":"GSTK1","reagent no.":2,"TNF reporter z-score, replicate mean":-0.38,"z-score, median over gene's siRNAs":0.485}
{"gene":"GSTK1","reagent no.":3,"TNF reporter z-score, replicate mean":0.61,"z-score, median over gene's siRNAs":0.485}
{"gene":"GSTK1","reagent no.":4,"TNF reporter z-score, replicate mean":"4.02 (active)","z-score, median over gene's siRNAs":0.485}
{"gene":"GSTK1","reagent no.":5,"TNF reporter z-score, replicate mean":0.36,"z-score, median over gene's siRNAs":0.485}
{"gene":"GSTK1","reagent no.":6,"TNF reporter z-score, replicate mean":-0.02,"z-score, median over gene's siRNAs":0.485}

The listing continues:
{"gene":"PKM","reagent no.":1,"TNF reporter z-score, replicate mean":0.73,"z-score, median over gene's siRNAs":0.525}
{"gene":"PKM","reagent no.":2,"TNF reporter z-score, replicate mean":-0.64,"z-score, median over gene's siRNAs":0.525}
{"gene":"PKM","reagent no.":3,"TNF reporter z-score, replicate mean":-0.04,"z-score, median over gene's siRNAs":0.525}
{"gene":"PKM","reagent no.":4,"TNF reporter z-score, replicate mean":0.77,"z-score, median over gene's siRNAs":0.525}
{"gene":"PKM","reagent no.":5,"TNF reporter z-score, replicate mean":0.32,"z-score, median over gene's siRNAs":0.525}
{"gene":"PKM","reagent no.":6,"TNF reporter z-score, replicate mean":"1.88 (active)","z-score, median over gene's siRNAs":0.525}
{"gene":"SNX9","reagent no.":1,"TNF reporter z-score, replicate mean":0.07,"z-score, median over gene's siRNAs":-0.425}
{"gene":"SNX9","reagent no.":2,"TNF reporter z-score, replicate mean":-0.44,"z-score, median over gene's siRNAs":-0.425}
{"gene":"SNX9","reagent no.":3,"TNF reporter z-score, replicate mean":"-1.39 (active)","z-score, median over gene's siRNAs":-0.425}
{"gene":"SNX9","reagent no.":4,"TNF reporter z-score, replicate mean":-0.41,"z-score, median over gene's siRNAs":-0.425}
{"gene":"SNX9","reagent no.":5,"TNF reporter z-score, replicate mean":-0.74,"z-score, median over gene's siRNAs":-0.425}
{"gene":"SNX9","reagent no.":6,"TNF reporter z-score, replicate mean":0.71,"z-score, median over gene's siRNAs":-0.425}
{"gene":"SKIC8","reagent no.":1,"TNF reporter z-score, replicate mean":0.15,"z-score, median over gene's siRNAs":0.26}
{"gene":"SKIC8","reagent no.":2,"TNF reporter z-score, replicate mean":-0.82,"z-score, median over gene's siRNAs":0.26}
{"gene":"SKIC8","reagent no.":3,"TNF reporter z-score, replicate mean":0.71,"z-score, median over gene's siRNAs":0.26}
{"gene":"SKIC8","reagent no.":4,"TNF reporter z-score, replicate mean":0.37,"z-score, median over gene's siRNAs":0.26}
{"gene":"SKIC8","reagent no.":5,"TNF reporter z-score, replicate mean":0.96,"z-score, median over gene's siRNAs":0.26}
{"gene":"SKIC8","reagent no.":6,"TNF reporter z-score, replicate mean":-0.46,"z-score, median over gene's siRNAs":0.26}
{"gene":"FKBP10","reagent no.":1,"TNF reporter z-score, replicate mean":-0.42,"z-score, median over gene's siRNAs":-0.26}
{"gene":"FKBP10","reagent no.":2,"TNF reporter z-score, replicate mean":-0.22,"z-score, median over gene's siRNAs":-0.26}
{"gene":"FKBP10","reagent no.":3,"TNF reporter z-score, replicate mean":0.26,"z-score, median over gene's siRNAs":-0.26}
{"gene":"FKBP10","reagent no.":4,"TNF reporter z-score, replicate mean":0.18,"z-score, median over gene's siRNAs":-0.26}
{"gene":"FKBP10","reagent no.":5,"TNF reporter z-score, replicate mean":-0.77,"z-score, median over gene's siRNAs":-0.26}
{"gene":"FKBP10","reagent no.":6,"TNF reporter z-score, replicate mean":-0.3,"z-score, median over gene's siRNAs":-0.26}
